# Results deposited as PubChem BioAssay AID1259331 (Drosophila RNAi Screening Center, 2017)
# Test: 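Fly transmembrane-protein genes that affect zinc toxicity in cultured cells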 (primary screen)
# System: Drosophila S2R+ cells
# Reagents: long dsRNA against Drosophila genes
# Time to read-out: 5 days (4 days knock-down, then 1 day zinc)
# Conditions: zinc chloride at 15 mM final level for 1 day
# Detection: 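Total cellular ATP measured by luciferase luminescence as a viability proxy, turned into Z scores from three plate copies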
# Reading the numbers: mean Z score: higher = more ATP than other wells, better survival under zinc; ATP luminescence: higher = more ATP, more viable cells
# Active means: 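Hit when the absolute Z score is greater than 1.5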
# Calls: active = hit, ATP up or down; inactive = not a hit
# This is an unselected part of about 3,100 reagents. In the full data, 126 (4.1%) are marked active. 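Calls are per reagent; zinc was so toxic that few knock-downs lowered ATP further, so most hits raise ATP.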 Raw values vary from plate to plate and are shown uncorrected. A plus sign joins genes that one reagent is predicted to hit. Reagent sequences are not shown. The record does not give: the amount of reagent.
gene knocked down,dsRNA,mean Z score,"ATP luminescence, replicate 1","ATP luminescence, replicate 2",outcome
ru (roughoid),DRSC08258,-0.000715,68298,75883,inactive
ru (roughoid),DRSC28529,1.29,81676,80925,inactive
Mvl (Malvolio),DRSC16752,-0.0746,43434,47549,inactive
Mvl (Malvolio),DRSC39671,0.961,76925,77800,inactive
MFS3 (Major Facilitator Superfamily Transporter 3),DRSC00664,0.608,51098,49829,inactive
MFS3 (Major Facilitator Superfamily Transporter 3),DRSC28601,0.511,71846,66634,inactive
Ten-a (Tenascin accessory),DRSC19864,-0.192,37039,44685,inactive
Ten-a (Tenascin accessory),DRSC20290,0.134,62621,74043,inactive
Rab3-GEF (Rab3 GDP-GTP exchange factor),DRSC19954,0.494,68401,80218,inactive
Rab3-GEF (Rab3 GDP-GTP exchange factor),DRSC19955,-0.0498,39959,44188,inactive
Rab3-GEF (Rab3 GDP-GTP exchange factor),DRSC27720,-0.14,52178,57513,inactive
Gr23a (Gustatory receptor 23a),DRSC00410,-0.344,42508,39734,inactive
Gr23a (Gustatory receptor 23a),DRSC27488,-0.101,59517,54645,inactive
Best3 (Bestrophin 3),DRSC09880,0.0949,77439,63084,inactive
Best3 (Bestrophin 3),DRSC39740,-0.439,58711,48509,inactive
MstProx + Mst84Da,DRSC12597,-0.0564,73186,58577,inactive

Next part; the last 4 above are carried over.
gene knocked down,dsRNA,mean Z score,"ATP luminescence, replicate 1","ATP luminescence, replicate 2",outcome
Gr23a (Gustatory receptor 23a),DRSC27488,-0.101,59517,54645,inactive
Best3 (Bestrophin 3),DRSC09880,0.0949,77439,63084,inactive
Best3 (Bestrophin 3),DRSC39740,-0.439,58711,48509,inactive
MstProx + Mst84Da,DRSC12597,-0.0564,73186,58577,inactive
lili (lilipod),DRSC14143,0.299,50575,47411,inactive
lili (lilipod),DRSC29667,0.872,84695,64782,inactive
CG10062,DRSC24932,-0.799,41976,43041,inactive
CG16727,DRSC15139,0.239,39199,63856,inactive
CG16727,DRSC26820,-0.43,57065,57682,inactive
Tsp96F (Tetraspanin 96F),DRSC14147,-0.538,42210,37810,inactive
Tsp96F (Tetraspanin 96F),DRSC39893,-0.642,44651,52332,inactive
nAChRbeta2 (nicotinic Acetylcholine Receptor beta2),DRSC17010,-0.423,42216,40656,inactive
Orct2 (Organic cation transporter 2),DRSC14613,-0.386,41513,42456,inactive
Orct2 (Organic cation transporter 2),DRSC24714,-0.257,43245,61369,inactive
Ktch (Ketchup),DRSC15094,0.205,66188,72791,inactive
Ktch (Ketchup),DRSC25973,-0.094,47463,59826,inactive
CG9444,DRSC16493,0.0293,39422,56379,inactive
BI-1 (Bax Inhibitor-1),DRSC10782,0.254,31760,32684,inactive
BI-1 (Bax Inhibitor-1),DRSC39448,0.171,53918,54390,inactive
Zip89B (Zinc/iron regulated transporter-related protein 89B),DRSC16128,-0.128,38719,48982,inactive
Zip89B (Zinc/iron regulated transporter-related protein 89B),DRSC29691,0.0991,59054,66857,inactive
CG7309,DRSC03045,-0.149,51008,45200,inactive
CG7309,DRSC27252,0.0301,64868,55556,inactive
rumpel,DRSC18436,-0.326,58523,62810,inactive
rumpel,DRSC39504,-0.15,42988,48766,inactive
inc (insomniac),DRSC17954,-0.92,53464,48063,inactive
inc (insomniac),DRSC28898,-0.14,61952,56482,inactive
CG42269,DRSC10672,-0.109,77628,55350,inactive
CG42269,DRSC24477,-0.121,55282,54630,inactive
ogre (optic ganglion reduced),DRSC18809,-0.263,44236,43897,inactive
ogre (optic ganglion reduced),DRSC24730,2.07,83563,90596,active
Sfxn1-3 (Sideroflexin 1/3),DRSC12183,-0.542,65558,52950,inactive
Pex12 (Peroxin 12),DRSC00622,5.3,1.03e5,1.11e5,active
Pex12 (Peroxin 12),DRSC27149,-0.147,65523,51029,inactive
